No constants are given. Whether binding was seen depends on the method and setting. In cells and extracts the contact can be indirect. Some entries that bind do so weakly or less than the wild type.
Molecular target: C-X-C chemokine receptor type 2 (CXCR2) (human (endogenous in 293T)) (UniProt P25025)
Experiment: co-IP; membrane proteins of 293T-GNG5^OE cells; immunoprecipitation with anti-CXCR2; western blot

Sequences of proteins named here, by UniProt entry; tags and fusion partners are left off.
UniProt P25025: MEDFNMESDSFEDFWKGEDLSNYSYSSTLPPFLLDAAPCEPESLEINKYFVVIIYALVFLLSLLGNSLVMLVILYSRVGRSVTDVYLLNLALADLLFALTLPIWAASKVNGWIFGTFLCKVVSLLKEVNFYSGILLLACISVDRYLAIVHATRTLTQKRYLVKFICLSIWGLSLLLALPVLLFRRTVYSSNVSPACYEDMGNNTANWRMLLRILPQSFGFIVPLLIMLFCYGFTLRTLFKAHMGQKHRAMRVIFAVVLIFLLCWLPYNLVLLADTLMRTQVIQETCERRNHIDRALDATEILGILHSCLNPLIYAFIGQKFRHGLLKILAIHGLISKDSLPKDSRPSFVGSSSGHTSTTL
UniProt P63218: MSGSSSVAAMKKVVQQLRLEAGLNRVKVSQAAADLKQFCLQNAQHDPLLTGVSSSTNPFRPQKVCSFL

binding: binds
Substance: human recombinant protein GNG5-FLAG (from UniProt P63218 1-68)
